Test results from the supplement of paper PMC10849652.
The list shows a part of the results.

The chains behind the UniProt entries cited, without tags or fusion partners. Where a name states a change or a piece, a line headed by the entry shows the natural chain unless it says otherwise.
UniProt P20226, whole entry, looked up: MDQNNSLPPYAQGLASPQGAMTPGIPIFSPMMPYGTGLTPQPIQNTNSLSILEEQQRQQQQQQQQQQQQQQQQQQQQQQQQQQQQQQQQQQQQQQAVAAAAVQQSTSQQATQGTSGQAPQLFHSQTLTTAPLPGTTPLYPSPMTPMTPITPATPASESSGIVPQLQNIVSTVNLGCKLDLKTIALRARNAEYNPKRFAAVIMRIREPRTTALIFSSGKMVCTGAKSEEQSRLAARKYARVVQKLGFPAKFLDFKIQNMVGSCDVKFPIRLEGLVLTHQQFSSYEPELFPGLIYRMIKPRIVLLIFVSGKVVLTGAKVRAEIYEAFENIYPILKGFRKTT
UniProt Q8NHU6: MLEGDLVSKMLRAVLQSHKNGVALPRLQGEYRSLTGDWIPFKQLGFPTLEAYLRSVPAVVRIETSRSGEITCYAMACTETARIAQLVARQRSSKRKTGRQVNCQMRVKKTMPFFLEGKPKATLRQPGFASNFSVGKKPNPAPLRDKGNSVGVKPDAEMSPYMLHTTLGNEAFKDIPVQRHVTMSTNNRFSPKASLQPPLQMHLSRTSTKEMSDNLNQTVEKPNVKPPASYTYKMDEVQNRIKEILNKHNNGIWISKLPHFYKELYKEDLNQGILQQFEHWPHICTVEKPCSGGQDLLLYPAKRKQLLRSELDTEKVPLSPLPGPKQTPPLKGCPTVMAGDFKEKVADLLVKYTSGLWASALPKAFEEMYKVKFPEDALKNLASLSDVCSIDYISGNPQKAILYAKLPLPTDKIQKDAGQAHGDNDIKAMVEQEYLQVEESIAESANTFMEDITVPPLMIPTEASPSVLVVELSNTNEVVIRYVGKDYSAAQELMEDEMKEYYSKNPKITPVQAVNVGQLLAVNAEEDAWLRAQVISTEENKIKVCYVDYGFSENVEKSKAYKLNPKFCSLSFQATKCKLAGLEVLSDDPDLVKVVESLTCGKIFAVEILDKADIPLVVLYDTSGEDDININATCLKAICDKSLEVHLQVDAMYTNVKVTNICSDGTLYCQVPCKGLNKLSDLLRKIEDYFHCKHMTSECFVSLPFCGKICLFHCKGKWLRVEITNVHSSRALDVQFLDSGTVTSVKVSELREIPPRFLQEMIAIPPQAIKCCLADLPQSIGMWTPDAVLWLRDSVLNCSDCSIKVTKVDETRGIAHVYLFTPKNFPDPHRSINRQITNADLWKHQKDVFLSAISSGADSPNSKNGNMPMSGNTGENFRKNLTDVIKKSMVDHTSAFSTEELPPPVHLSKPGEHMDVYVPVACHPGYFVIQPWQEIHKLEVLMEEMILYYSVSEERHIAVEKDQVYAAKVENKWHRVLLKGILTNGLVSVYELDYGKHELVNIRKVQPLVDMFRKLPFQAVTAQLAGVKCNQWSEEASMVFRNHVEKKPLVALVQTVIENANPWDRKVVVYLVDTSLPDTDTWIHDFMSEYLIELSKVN
UniProt Q96EI5: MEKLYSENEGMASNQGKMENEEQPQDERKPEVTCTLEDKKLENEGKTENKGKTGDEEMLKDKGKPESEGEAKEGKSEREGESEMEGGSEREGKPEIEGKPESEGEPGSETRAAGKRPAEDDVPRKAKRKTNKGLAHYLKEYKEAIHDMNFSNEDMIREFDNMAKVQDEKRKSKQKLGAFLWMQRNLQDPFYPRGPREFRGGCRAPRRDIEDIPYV
UniProt Q04726: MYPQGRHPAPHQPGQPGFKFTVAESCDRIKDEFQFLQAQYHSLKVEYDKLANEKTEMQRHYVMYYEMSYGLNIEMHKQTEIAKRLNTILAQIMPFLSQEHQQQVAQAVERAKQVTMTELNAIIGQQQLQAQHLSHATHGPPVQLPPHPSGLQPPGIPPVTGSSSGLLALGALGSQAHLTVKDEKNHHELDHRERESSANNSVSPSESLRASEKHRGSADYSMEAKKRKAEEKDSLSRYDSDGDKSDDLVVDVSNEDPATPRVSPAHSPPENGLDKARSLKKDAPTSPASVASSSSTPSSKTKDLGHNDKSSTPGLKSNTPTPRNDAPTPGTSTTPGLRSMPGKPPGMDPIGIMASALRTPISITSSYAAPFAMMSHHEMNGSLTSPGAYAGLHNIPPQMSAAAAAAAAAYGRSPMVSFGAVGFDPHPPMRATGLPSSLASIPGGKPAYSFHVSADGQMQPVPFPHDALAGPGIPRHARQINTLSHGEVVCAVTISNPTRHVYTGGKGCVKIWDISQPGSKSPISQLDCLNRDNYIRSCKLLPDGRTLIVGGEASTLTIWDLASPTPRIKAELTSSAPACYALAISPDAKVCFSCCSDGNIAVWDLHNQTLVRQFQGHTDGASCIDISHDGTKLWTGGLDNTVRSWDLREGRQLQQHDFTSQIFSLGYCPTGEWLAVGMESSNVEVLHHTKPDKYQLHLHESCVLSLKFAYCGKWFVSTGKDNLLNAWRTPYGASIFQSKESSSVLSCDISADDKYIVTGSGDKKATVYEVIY
UniProt Q13428: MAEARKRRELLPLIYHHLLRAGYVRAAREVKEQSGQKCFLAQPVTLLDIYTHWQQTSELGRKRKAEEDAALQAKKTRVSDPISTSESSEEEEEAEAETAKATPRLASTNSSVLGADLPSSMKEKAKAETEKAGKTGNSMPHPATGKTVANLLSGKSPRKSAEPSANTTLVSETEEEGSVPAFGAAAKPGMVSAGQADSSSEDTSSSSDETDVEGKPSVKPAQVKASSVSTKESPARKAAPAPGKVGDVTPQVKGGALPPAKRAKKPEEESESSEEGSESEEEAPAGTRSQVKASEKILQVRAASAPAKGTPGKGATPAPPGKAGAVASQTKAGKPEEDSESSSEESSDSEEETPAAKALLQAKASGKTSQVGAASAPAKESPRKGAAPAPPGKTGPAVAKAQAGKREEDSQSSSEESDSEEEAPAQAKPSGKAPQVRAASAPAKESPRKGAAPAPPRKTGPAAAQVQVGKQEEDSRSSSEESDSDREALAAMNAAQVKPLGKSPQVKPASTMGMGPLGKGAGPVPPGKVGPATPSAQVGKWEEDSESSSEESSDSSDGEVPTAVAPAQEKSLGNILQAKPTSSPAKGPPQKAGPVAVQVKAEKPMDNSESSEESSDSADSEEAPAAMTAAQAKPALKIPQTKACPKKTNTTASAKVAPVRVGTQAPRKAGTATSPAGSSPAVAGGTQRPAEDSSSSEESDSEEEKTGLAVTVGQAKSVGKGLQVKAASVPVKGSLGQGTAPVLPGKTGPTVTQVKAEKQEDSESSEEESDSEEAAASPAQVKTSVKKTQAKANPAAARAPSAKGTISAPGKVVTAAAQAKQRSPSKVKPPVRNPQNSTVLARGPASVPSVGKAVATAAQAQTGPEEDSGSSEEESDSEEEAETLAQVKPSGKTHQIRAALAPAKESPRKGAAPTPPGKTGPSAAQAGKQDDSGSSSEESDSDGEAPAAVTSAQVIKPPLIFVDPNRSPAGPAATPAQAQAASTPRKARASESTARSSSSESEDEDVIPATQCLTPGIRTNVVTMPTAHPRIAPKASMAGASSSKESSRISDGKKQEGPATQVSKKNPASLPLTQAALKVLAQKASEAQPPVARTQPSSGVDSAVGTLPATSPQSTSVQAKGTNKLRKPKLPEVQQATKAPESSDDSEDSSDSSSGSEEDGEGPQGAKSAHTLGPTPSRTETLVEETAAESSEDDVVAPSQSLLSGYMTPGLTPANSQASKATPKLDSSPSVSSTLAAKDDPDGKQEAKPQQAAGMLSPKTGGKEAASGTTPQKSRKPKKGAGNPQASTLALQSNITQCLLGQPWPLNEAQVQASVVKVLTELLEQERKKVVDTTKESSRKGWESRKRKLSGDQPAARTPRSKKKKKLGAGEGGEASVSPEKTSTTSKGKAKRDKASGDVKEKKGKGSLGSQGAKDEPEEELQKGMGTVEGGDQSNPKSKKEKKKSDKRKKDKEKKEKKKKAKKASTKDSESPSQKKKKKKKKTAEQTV
UniProt Q14186: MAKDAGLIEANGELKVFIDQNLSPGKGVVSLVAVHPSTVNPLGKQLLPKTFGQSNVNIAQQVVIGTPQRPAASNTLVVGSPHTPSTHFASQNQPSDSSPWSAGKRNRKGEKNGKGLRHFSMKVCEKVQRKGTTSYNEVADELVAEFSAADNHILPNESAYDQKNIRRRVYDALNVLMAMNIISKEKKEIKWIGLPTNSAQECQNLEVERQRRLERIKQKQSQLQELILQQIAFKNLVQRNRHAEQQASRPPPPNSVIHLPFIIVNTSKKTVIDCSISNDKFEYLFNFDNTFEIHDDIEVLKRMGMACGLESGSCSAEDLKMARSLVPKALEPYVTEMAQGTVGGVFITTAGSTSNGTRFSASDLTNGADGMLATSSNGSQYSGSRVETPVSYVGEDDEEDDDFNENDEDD
UniProt Q96CG3: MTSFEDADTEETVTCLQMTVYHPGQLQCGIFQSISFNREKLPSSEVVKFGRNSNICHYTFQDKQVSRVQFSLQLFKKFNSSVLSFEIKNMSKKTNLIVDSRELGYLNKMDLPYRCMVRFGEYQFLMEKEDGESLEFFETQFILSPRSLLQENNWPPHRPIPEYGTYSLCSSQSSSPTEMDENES

Compound: CNc1nc(-c2ccc3c(N)n[nH]c3c2)cc(N2C[C@@H](C(=O)NC3CCCCC3)CC[C@H]2C)n1
Test: log2 fold change, soluble protein after heating vs DMSO (PISA); higher = thermal stabilisation; K562 cells, 10 uM, 30 min; active = over 0.2 and 3.5 SD of the protein, either way, in both replicates (recomputed)
Method in brief: (§1)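 Quantification of soluble protein used TMTpro 16plex LC-MS/MS, with channel sums equalised. Samples were the supernatant after 21,000xg for 90 min of pooled aliquots from K562 cells (2×10^6 cells/mL) treated with 10 μM compound for 30 min, heated for 3 min over 48°C-58°C, and extracted in PBS with 0.5% NP-40 at 4°C. Values, from duplicates, describe thermal stability against control samples on a log2 fold-change scale.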

log2 fold change, inactive:
TEX30 (UniProt Q5JUR7) -0.026
TENM4 (UniProt Q6N022) 0.11
THAP9 (UniProt Q9H5L6) 0.186
TBP (UniProt P20226) -0.158
THEMIS2 (UniProt Q5TEJ8) -0.141
TBC1D9 (UniProt Q6ZT07) -0.011
TC2N (UniProt Q8N9U0) -0.064
TCP11L1 (UniProt Q9NUJ3) 0.046
TBCK (UniProt Q8TEA7) -0.195
TEDC2 (UniProt Q7L2K0) 0.053
TDRD7 (UniProt Q8NHU6) -0.037
TCEAL4 isoform 2 (UniProt Q96EI5) 0.198

Compound: COC(=O)N[C@@H](C)CNc1nccc(-c2cn(C(C)C)nc2-c2cc(Cl)cc(NS(C)(=O)=O)c2F)n1 [encorafenib]
Test: as above
Method in brief: as §1

log2 fold change, inactive:
TBC1D2 (UniProt Q9BYX2) 0.122
TCF3 isoform 2 (UniProt P15923) 0.129
TBP (UniProt P20226) 0.019
TEX10 (UniProt Q9NXF1) -0.513
TLE3 (UniProt Q04726) -0.182
TFIP11 (UniProt Q9UBB9) -0.214
TET2 (UniProt Q6N021) -0.015
TFAP4 (UniProt Q01664) 0.107
TBC1D20 isoform 3 (UniProt Q96BZ9) 0.074
TCOF1 isoform 3 (UniProt Q13428) -0.084
TCP11L1 (UniProt Q9NUJ3) 0.115
TFDP1 (UniProt Q14186) 0
TFDP2 (UniProt Q14188) -0.179
TDRD7 (UniProt Q8NHU6) 0.017
TCOF1 isoform 6 (UniProt Q13428) 0.162
TCAF2 (UniProt A6NFQ2) 0.263
TCEAL4 isoform 2 (UniProt Q96EI5) 0.248

Compound: COC(=O)[C@H](CCSC)NC(=O)C1=C(C=C(C=C1)NC[C@H](CS)N)C2=CC=CC=C2
Test: as above
Method in brief: as §1

log2 fold change, inactive:
TEX30 (UniProt Q5JUR7) 0.017
TCF3 isoform 2 (UniProt P15923) 0.139
TBP (UniProt P20226) -0.071
TBC1D14 (UniProt Q9P2M4) 0.052
TBC1D25 (UniProt Q3MII6) -0.094
TIFA (UniProt Q96CG3) -0.099
TFAP4 (UniProt Q01664) -0.057
TBC1D9 (UniProt Q6ZT07) -0.049
TC2N (UniProt Q8N9U0) -0.096
TBC1D20 isoform 3 (UniProt Q96BZ9) -0.068
TFDP1 (UniProt Q14186) -0.088
TDRD3 isoform 3 (UniProt Q9H7E2) -0.044
TCEAL1 isoform 2 (UniProt Q15170) 0.116
TCF25 (UniProt Q9BQ70) -0.183
TDRD7 (UniProt Q8NHU6) 0.025
TCOF1 isoform 6 (UniProt Q13428) -0.053
TCEAL4 isoform 2 (UniProt Q96EI5) -0.084
